Measurements reported in PubChem BioAssay AID1259425 (University of Nebraska Medical Center, 2018).
In all, the deposit lists about 14,000 reagents; below is a part drawn at random. Not all columns of the deposit are shown. The record does not give: the time to read-out.

Screen: 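Compare each knockdown with KSR1 silencing using changes in marker transcripts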 (primary screen)
System: HCT116 human colon cancer cells
Knock-down reagent: siRNA pool against human genes, 50 nM siRNA
Measurement: 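mRNA of six signature genes measured together by branched-DNA assay after 50 nM siRNA pool, blank removed, divided by geometric mean of two housekeeping genes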
Reading the numbers: BNIP3L mRNA: higher = more BNIP3L transcript after knockdown

gene symbol | BNIP3L mRNA, set 1
H2AC12 (GeneID 85235) | 0.133
TRPA1 (GeneID 8989) | 0.0498
PRKY (GeneID 5616) | 0.227
HPDL (GeneID 84842) | 0.165
EIF2B2 (GeneID 8892) | 0.0868
TACO1 (GeneID 51204) | 0.0996
MITF (GeneID 4286) | 0.0965
PLEKHG5 (GeneID 57449) | 0.0813
NT5DC3 (GeneID 51559) | 0.0658
PHOX2B (GeneID 8929) | 0.14
ZMYND12 (GeneID 84217) | 0.103
KRT3 (GeneID 3850) | 0.0594
XPNPEP2 (GeneID 7512) | 0.148
CXCR6 (GeneID 10663) | 0.0708
ADAMTSL2 (GeneID 9719) | 0.193
RIC1 (GeneID 57589) | 0.106
ESRP2 (GeneID 80004) | 0.15
RNPEPL1 (GeneID 57140) | 0.0997
TTC3 (GeneID 7267) | 0.085
RPS6KA2 (GeneID 6196) | 0.13

Targets above whose gene name begins with T or t:
gene symbol | BNIP3L mRNA, set 1
TRPA1 (GeneID 8989) | 0.0498
TACO1 (GeneID 51204) | 0.0996
TTC3 (GeneID 7267) | 0.085
